Source: patent US10196286B2, “Method for removing fluorinated organic compounds from contaminated fluids, and adsorbent component and adsorbent kit used therefor” (Fraunhofer-Gesellschaft zur Förderung der angewandten …, priority 2013, dated 2019)

What was measured:
[1] = Adsorption in batch processing (stirred tank reactor sorption), Examples 1 to 10; conditions: reagent 1 1 ml/l
[2] = First adsorbent component without solid adsorbent component: precipitation of adduct from raw water

Compound	Concentration PFT (residual concentration of PFT in the filtrate) ([1]; Conc. PFTsorb 25 mg/l) [µg/L]	Concentration PFT (residual concentration of PFT in the filtrate) ([1]; Conc. PFTsorb 50 mg/l) [µg/L]	Concentration PFT (residual concentration of PFT in the filtrate) ([1]; Conc. PFTsorb 75 mg/l) [µg/L]	Concentration PFT (residual concentration of PFT in the filtrate) ([1]; Conc. PFTsorb 100 mg/l) [µg/L]	precipitation of the formed adduct after contact with raw water [2]	residual PFT concentration in the treated raw water [2]
CCCCCCCCCCCC[N+](C)(C)CC(O)CCl.[Cl-] (centres unmarked) [Example 1, 3-chloro-2-hydroxy-propyl dimethyl dodecyl ammonium chloride]	2.08	1.08	0.74	0.48		
hydrolyzed 3-chloro-2-hydroxy-propyl dimethyl dodecyl ammonium chloride [Example 2]	3.83	2.08	1.03	0.54		
CCCCCCCCCCCC[N+](C)(C)C.[Cl-] [Example 3, (1-dodecyl)trimethyl ammonium chloride]	3.65	1.09	0.62	0.34		
dioleoyl ethyl-hydroxyethylmonium methosulfate					visually easy to perceive precipitation products	clearly reduced
1-propanaminium-3-amino-N-carboxymethyl-N,N-dimethyl-N-C8-C18 acyl derivative [Tego Betaine F50]					visually easy to perceive precipitation products	clearly reduced
CCCCCCCCCCCCCC[N+](C)(C)C.[Cl-] [Example 4, (1-tetradecyl)trimethyl ammonium chloride]	3.23	1.1	0.65	0.32		
